This is one part of the list. The main result of the screen is listed elsewhere. These columns were measured beside it and carry no call. Most of these compounds were active or inconclusive in the main read-out, so they are no random draw. The note in brackets gives the kind of curve behind each potency; many fits are weak.

The nature of this experiment: qHTS Assay for Modulators of Lamin A Splicing. As to conditions: HeLa LMNA splicing GFP/RFP minigene ratio, 48 h. The essentials:
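S3 HeLa stable clones carrying a lamin A-EGFP splicing minigene plus DsRed2 were seeded at 600 cells/well in Opti-MEM with 2% FBS, pin-dosed and incubated 48 h at 37°C. Acumen cytometry (488 nm) gave the GFP/RFP total-intensity ratio.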
For orientation: Quantitative high-throughput screening tests each substance at several concentrations.

Where [1] appears, read: measured here: GFP splicing reporter channel.
The mark [2] stands for this setting: measured here: RFP viability control channel.

Turning to `Cc1ccc(C(=O)Nc2ccc([N+](=O)[O-])cn2)o1`, the AC50 (in general, the concentration giving half of the maximal activity seen) runs as follows: under setting [1], 2.51 µM [rising, partial curve, poor fit]; under setting [2], 0.251 µM [rising, full curve, poor fit].

As for `C/C(=N\Nc1ncc(Cl)cc1Cl)c1ccccn1`, the AC50 under setting [2] is 20 µM [rising, partial curve].

As for `O=C(NNC(=O)c1ccc2ccccc2c1O)c1ccccc1Cl`, the AC50 under setting [2] is 25.1 µM [rising, single point].

Turning to `CCOC(=O)CSc1nc(N2CCOCC2)c2c(c1C#N)CC(C)(C)N(C)C2`, the AC50 under setting [2] is 3.16 µM [rising, partial curve].

Regarding `COc1ccc(-c2csc3nc(-c4cccnc4)nc(Cl)c23)cc1OC`, the AC50 under setting [1] is 0.00708 µM [falling, full curve, poor fit].

For `Cc1cccc(-c2cc(NC(=O)COc3ccccc3F)n(-c3ccccc3)n2)c1`, the AC50 was 5.62 µM [rising, single point] under setting [1] and 5.62 µM [rising, single point] under setting [2].

In the case of `O=C(CCc1ccccc1)Nc1ccccc1C(=O)N1CCOCC1`, under setting [2], the concentration at half-maximal activity (AC50) is 0.1 µM [falling, full curve].

With `COc1ccc(S(=O)(=O)n2nc(OC(=O)c3c(-c4ccccc4Cl)noc3C)cc2N)cc1`, the AC50 by setting is: under setting [1], 14.1 µM [falling, partial curve]; under setting [2], 22.4 µM [falling, single point].

For `CCC(C)c1ccc(O)c(NC(=O)c2cncc(Br)c2)c1` (stereo unspecified), the AC50 under setting [2] is 7.08 µM [rising, partial curve, poor fit].

For `COc1cccc(OC)c1C(=O)Nn1c(-c2cccs2)nc2ccccc2c1=O`, the AC50 was 5.01 µM [rising, full curve, poor fit] under setting [1] and 5.62 µM [rising, partial curve, poor fit] under setting [2].

`C=CCOc1ccc(CN(C)Cc2nc3cc(C(F)(F)F)ccc3c(=O)[nH]2)cc1`: under setting [2], the AC50 is 6.31 µM [falling, partial curve, poor fit].

`COc1cccc(/C=C/C(=O)Nc2ccc(OC)nc2)c1`: the AC50 under setting [2] is 35.5 µM [rising, single point].

`O=C(N/N=C/c1cc([N+](=O)[O-])cc([N+](=O)[O-])c1O)/C(=C\c1cccs1)NC(=O)c1ccccc1`: the AC50 under setting [2] was 6.31 µM [rising, partial curve].

As for `Nc1c2c3c(sc2nc(=O)n1N)CCCC3`, the AC50 under setting [1] is 35.5 µM [falling, single point].

On to `COc1cccc(NC(=S)NNC(=O)c2c([N+](=O)[O-])c(C)nn2C)c1`, for which the AC50 reads like this: under setting [1], 25.1 µM [falling, partial curve, poor fit]; under setting [2], 35.5 µM [falling, single point].

As to `Cc1ccc(/C=C2/Sc3ccccc3N(CC(=O)NCCCOC(C)C)C2=O)cc1`, under setting [2], the AC50 is 35.5 µM [rising, single point].

With `O=C(c1ccc(Br)s1)N1CCN(C/C=C/c2ccccc2)CC1`, the AC50 under setting [2] was 35.5 µM [rising, single point].

For the compound `CCS(=O)(=O)c1ncc(N(Cc2ccco2)Cc2sccc2C)c(C(=O)Nc2cc(C)ccc2C)n1`, the AC50 runs as follows: under setting [1], 3.16 µM [falling, single point]; under setting [2], 4.47 µM [falling, single point].

With `O=C(Nc1ccccc1Oc1ccccc1)c1cc([N+](=O)[O-])ccc1Cl`, the half-maximal activity concentration (AC50) under setting [2] was 35.5 µM [rising, single point].

With `CCOC(=O)c1ccc(NC(=O)Nc2ccc3c(c2)OCCO3)cc1`, under setting [2], the AC50 was 35.5 µM [rising, single point].

As for `COc1ccc(C(=O)NCCc2sc(-c3cccc(F)c3)nc2C)cc1`, the AC50 under setting [1] was 0.141 µM [falling, full curve, poor fit] and the AC50 under setting [2] was 0.126 µM [falling, full curve, poor fit].

Consider `COc1cccc(-c2nnc(N(C)C(=O)c3ccno3)s2)c1`, for which, under setting [2], the AC50 is 0.891 µM [falling, partial curve].

`C[C@@H](N)C1CCC(C(=O)Nc2ccncc2)CC1` (stereo partly specified): the AC50 reads like this: under setting [1], 0.0224 µM [rising, full curve, poor fit]; under setting [2], 6.31 µM [falling, partial curve, poor fit].

With `COc1cc(/C=C/c2ccc(O)cc2)cc(OC)c1`, the AC50 reads like this: under setting [1], 3.55 µM [falling, partial curve, poor fit]; under setting [2], 31.6 µM [rising, single point].

In the case of `CCOC(=O)c1ncn2c1CN(C)C(=O)c1cc(F)ccc1-2`, the AC50 under setting [1] was 100 µM [falling, partial curve, poor fit].

As for `CC1CCc2nc(NC(=O)COc3ccc(C(C)(C)C)cc3)sc2C1` (stereo unspecified), the AC50 under setting [1] is 5.62 µM [falling, full curve].

Consider `COc1ccc(CN2CCCC(C(=O)N(C)Cc3ccccc3)C2)cc1OC` (stereo unspecified), for which the AC50 under setting [2] is 0.316 µM [rising, full curve, poor fit].

For the compound `O=C(N/N=C/c1ccc(Br)s1)c1cccc([N+](=O)[O-])c1`, the AC50 under setting [2] was 2.24 µM [rising, full curve, poor fit].

For `COc1cc(OC)cc(C(=O)N2c3ccc(F)cc3CCC2C)c1` (stereo unspecified), under setting [2], the AC50 is 0.251 µM [rising, full curve, poor fit].

Consider `Cc1ccc(NC(=S)N(CCCN2CCOCC2)Cc2ccccn2)cc1`, for which, under setting [2], the AC50 was 0.0158 µM [rising, full curve, poor fit].

With `Cc1nc(CC(=O)c2c(C)cc(O)cc2O)cs1`, the AC50 is 0.126 µM [rising, full curve, poor fit] under setting [1] and 4.47 µM [rising, full curve] under setting [2].

As to `CCOC(=O)c1[nH]c2ccc(OCC)cc2c1NC(=O)CN1CCN(c2ccccn2)CC1`, the AC50 under setting [2] is 11.2 µM [rising, partial curve].

In the case of `FC(F)(F)c1cccc(CN2CCCCCC2)c1`, the AC50 under setting [1] was 35.5 µM [falling, single point].

`CC(=O)n1c2ccccc2c2c1c1ccccc1n2C`: under setting [2], the AC50 is 0.316 µM [rising, full curve].

Turning to `CCOc1nc(-c2ccc(OC)cc2)ccc1-c1noc(C)n1`, the AC50 was 35.5 µM [rising, single point] under setting [1] and 31.6 µM [rising, single point] under setting [2].

As to `COc1ccc(NC(=O)CC2C(=O)N(c3ccc(Cl)cc3)C(=S)N2NC(=O)c2cccc(F)c2)cc1` (stereo unspecified), the AC50 runs as follows: under setting [1], 22.4 µM [rising, single point]; under setting [2], 20 µM [rising, partial curve].

As for `CCOc1ccc(S(=O)(=O)Nc2ccc3oc(C)c(C(=O)OCCOC)c3c2)cc1`, the AC50 is 1.41 µM [rising, full curve, poor fit] under setting [1] and 1.78 µM [rising, partial curve] under setting [2].

Turning to `CCOc1ccc(NC(=O)N2CCC(NC(=O)C(Cc3ccc(OC)c(OC)c3)NC(C)=O)CC2)cc1` (stereo unspecified), under setting [2], the AC50 is 0.0398 µM [falling, full curve, poor fit].

For `NC(=O)COC(=O)c1c2c(nc3ccccc13)CCCCC2`, the AC50 under setting [2] was 0.2 µM [falling, full curve, poor fit].

As for `Cc1ccc(S(=O)(=O)c2nc(NCc3ccc4c(c3)OCO4)sc2Cl)cc1`, under setting [2], the AC50 is 25.1 µM [rising, single point].

As to `COc1ccc(CCNC(=O)CCc2ccc(S(=O)(=O)NCC(C)C)cc2)cc1`, the AC50 under setting [2] is 15.8 µM [rising, single point].

Take `COC(=O)c1ccc2c(=O)n(-c3ccccc3)c(=S)[nH]c2c1`: the AC50 under setting [1] is 7.94 µM [falling, partial curve, poor fit].

In the case of `O=C(Nc1cc2c3c(c1)C1CCCC1CN3CC1CCCC21)c1ccccc1` (stereo unspecified), the AC50 under setting [2] was 2.51 µM [rising, partial curve, poor fit].

For the compound `CCNc1ncc2nc(-c3cn(C)c4ccccc34)c(=O)n(Cc3ccc(F)cc3)c2n1`, under setting [1], the AC50 was 3.55 µM [falling, partial curve].

For the compound `Brc1ccc(-c2csc(NC3=NCCCCC3)n2)cc1`, the AC50 was 17.8 µM [rising, partial curve, poor fit] under setting [1] and 0.501 µM [rising, partial curve, poor fit] under setting [2].

`COc1cccc(/C=N\NC(=O)Cn2nnc3ccccc32)c1O`: the AC50 under setting [2] is 17.8 µM [falling, partial curve].

With `O=C(CCNc1cccc(Cl)c1)c1cccs1`, the AC50 under setting [1] is 20 µM [falling, single point] and the AC50 under setting [2] is 35.5 µM [falling, single point].

Regarding `COc1ccccc1N1N=C(c2cccs2)CC1c1ccccc1` (stereo unspecified), the AC50 was 14.1 µM [rising, partial curve, poor fit] under setting [1] and 12.6 µM [rising, partial curve] under setting [2].

For `Clc1ccc(-c2ccnc(Oc3cc(Cl)ccc3Cl)n2)cc1`, the AC50 was 12.6 µM [falling, partial curve, poor fit] under setting [1] and 12.6 µM [falling, partial curve] under setting [2].

For the compound `COC(=O)c1ccc(C(NC(=O)OCc2ccccc2)/C(F)=C/[C@@H](C)C(=O)NCc2ccc(-c3ccccc3)cc2)cc1` (stereo partly specified), the AC50 under setting [1] was 35.5 µM [rising, single point] and the AC50 under setting [2] is 35.5 µM [rising, single point].

On to `CN(Cc1ccccc1)C(=O)CCSc1nc(-c2ccc3c(c2)OCO3)cc(C(F)(F)F)n1`, for which the AC50 under setting [2] is 17.8 µM [rising, partial curve].

For `Cc1cc(C=O)c(C)n1-c1ccc(N2CCCC2)c([N+](=O)[O-])c1`, the AC50 was 7.08 µM [rising, full curve, poor fit] under setting [1] and 11.2 µM [rising, partial curve] under setting [2].

With `CC(C)(C)c1ccc(-c2nc(C=O)c3ccccn23)cc1`, the AC50 was 11.2 µM [rising, partial curve] under setting [1] and 12.6 µM [rising, partial curve] under setting [2].

In the case of `CCc1c(C)nc(SCC(=O)Nc2ccc(Br)cc2)[nH]c1=O`, the AC50 under setting [2] is 35.5 µM [rising, single point].

For the compound `COc1ccc(N2C(=O)C(CC(=O)Nc3ccccc3)N(Cc3ccc4c(c3)OCO4)C2=O)cc1` (stereo unspecified), the AC50 was 11.2 µM [falling, single point] under setting [1] and 22.4 µM [falling, partial curve, poor fit] under setting [2].

For the origin of these results see PubChem BioAssay AID1487 (National Center for Advancing Translational Sciences (NCATS), 2009).
